Screening data, single-dose tests

The chains behind the UniProt entries cited, without tags or fusion partners. Residues count along the entry.
UniProt Q4DA54, 1-478: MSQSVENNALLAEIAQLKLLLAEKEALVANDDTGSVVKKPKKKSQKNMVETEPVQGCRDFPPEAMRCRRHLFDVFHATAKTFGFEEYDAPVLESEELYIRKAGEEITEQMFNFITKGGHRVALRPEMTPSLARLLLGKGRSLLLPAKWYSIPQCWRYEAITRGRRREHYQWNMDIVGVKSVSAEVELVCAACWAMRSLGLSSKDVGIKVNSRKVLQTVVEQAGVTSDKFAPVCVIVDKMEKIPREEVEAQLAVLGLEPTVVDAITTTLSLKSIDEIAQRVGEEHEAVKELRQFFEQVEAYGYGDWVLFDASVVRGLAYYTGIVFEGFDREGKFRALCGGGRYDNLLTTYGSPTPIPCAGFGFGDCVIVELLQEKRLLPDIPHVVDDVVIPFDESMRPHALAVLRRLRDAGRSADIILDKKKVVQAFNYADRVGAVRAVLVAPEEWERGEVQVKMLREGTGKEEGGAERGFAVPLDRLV
UniProt I6X8D2, whole entry: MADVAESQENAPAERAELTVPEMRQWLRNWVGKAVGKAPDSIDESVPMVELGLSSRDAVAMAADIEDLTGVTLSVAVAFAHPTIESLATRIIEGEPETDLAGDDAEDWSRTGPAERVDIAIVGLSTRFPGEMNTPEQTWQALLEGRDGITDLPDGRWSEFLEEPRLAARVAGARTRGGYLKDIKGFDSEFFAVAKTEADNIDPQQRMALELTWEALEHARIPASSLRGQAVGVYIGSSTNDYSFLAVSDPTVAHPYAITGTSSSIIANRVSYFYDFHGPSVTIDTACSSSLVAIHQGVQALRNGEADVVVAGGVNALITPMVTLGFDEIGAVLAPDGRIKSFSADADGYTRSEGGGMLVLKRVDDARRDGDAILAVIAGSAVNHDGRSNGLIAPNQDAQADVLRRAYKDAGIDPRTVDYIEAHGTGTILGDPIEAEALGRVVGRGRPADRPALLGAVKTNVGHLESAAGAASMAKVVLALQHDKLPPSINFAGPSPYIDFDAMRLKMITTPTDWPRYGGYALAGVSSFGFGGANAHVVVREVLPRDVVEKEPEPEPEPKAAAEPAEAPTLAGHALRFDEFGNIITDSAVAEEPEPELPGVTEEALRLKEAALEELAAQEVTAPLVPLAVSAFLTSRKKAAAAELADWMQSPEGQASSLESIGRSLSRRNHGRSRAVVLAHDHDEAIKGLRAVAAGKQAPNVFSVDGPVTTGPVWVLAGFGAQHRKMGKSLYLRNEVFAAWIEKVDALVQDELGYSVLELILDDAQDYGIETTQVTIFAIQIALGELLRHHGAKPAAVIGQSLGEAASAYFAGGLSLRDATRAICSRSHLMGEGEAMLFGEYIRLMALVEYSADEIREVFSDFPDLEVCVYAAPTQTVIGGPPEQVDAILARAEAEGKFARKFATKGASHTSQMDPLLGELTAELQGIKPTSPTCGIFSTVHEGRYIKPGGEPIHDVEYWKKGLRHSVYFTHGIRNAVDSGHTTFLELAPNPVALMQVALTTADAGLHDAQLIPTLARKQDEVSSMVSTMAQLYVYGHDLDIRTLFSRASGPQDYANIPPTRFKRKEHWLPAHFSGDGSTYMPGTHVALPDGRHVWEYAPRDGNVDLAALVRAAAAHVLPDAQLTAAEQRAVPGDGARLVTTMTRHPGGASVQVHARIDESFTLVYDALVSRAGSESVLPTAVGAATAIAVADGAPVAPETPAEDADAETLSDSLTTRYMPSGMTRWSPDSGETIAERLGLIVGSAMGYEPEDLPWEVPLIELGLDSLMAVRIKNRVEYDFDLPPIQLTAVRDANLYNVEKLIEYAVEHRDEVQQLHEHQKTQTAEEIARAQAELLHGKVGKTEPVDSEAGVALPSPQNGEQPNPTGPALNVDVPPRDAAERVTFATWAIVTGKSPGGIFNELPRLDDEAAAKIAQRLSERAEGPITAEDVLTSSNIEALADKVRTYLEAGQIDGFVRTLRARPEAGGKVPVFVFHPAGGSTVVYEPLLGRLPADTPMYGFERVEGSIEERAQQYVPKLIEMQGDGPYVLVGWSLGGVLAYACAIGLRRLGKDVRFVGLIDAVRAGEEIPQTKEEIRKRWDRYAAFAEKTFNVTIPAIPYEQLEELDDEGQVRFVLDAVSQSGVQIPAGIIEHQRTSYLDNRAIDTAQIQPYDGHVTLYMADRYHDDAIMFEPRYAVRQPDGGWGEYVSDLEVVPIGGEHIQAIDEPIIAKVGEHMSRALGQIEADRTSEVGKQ
UniProt P9WNZ1, whole entry: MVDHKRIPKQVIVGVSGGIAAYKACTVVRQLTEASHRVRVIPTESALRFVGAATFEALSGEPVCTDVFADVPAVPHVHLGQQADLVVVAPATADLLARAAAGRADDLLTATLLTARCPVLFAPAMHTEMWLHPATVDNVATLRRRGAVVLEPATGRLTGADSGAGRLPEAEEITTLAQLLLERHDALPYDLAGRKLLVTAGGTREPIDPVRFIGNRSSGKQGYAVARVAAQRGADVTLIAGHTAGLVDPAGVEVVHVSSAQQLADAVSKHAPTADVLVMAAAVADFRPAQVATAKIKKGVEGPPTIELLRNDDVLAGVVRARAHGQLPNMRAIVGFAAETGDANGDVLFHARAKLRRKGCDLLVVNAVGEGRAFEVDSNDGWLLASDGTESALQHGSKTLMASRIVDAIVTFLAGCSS
UniProt Q8IDJ8, 1-583: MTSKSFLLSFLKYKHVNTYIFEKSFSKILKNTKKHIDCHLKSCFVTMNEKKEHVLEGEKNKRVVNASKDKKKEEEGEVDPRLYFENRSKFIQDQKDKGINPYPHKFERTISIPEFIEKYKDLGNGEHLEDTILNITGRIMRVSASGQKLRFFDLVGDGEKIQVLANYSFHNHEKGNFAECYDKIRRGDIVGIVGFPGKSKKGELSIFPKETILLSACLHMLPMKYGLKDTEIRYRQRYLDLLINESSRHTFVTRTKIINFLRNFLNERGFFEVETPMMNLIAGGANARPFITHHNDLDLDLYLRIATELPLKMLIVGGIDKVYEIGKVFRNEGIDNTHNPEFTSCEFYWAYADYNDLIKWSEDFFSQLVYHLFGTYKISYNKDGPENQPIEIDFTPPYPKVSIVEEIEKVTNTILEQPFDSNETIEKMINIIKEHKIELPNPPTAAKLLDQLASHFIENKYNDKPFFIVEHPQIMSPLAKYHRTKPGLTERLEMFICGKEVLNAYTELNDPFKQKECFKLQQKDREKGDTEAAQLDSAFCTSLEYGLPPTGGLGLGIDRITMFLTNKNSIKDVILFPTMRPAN
UniProt P9WFT3, whole entry: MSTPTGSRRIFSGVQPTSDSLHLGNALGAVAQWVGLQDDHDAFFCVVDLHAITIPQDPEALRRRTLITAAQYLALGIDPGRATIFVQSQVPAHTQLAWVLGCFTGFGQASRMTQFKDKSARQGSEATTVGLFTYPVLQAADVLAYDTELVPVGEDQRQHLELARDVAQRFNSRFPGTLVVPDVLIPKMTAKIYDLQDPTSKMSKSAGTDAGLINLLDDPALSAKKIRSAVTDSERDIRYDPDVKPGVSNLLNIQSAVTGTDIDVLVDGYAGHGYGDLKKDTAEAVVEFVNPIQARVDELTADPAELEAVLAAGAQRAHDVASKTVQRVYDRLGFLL

The filed quantity is “Percent Effect” (%). The controls that fix the scale are not given in the record; negative values are as filed. The compounds are a random part of those screened. Two or more numbers in one place are separate tests of the same structure; such repeats can differ widely. A dash means the value is not listed here; it may have been measured.

TcHisRS: 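Histidine-tRNA ligase, Trypanosoma cruzi CL Brener (UniProt Q4DA54). Enzyme assay of histidyl-tRNA synthetase; the read-out is not stated. Tested at 30 µM. Higher reads as stronger inhibition (inferred: compounds with an IC50 in retests scored well above the rest). Of about 69,000 compounds tested this way, about 31 (0.045%) reached 50% or more in at least one test.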
Pks13 thioesterase: 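Polyketide synthase Pks13, Mycobacterium tuberculosis (UniProt I6X8D2). Enzyme assay of the thioesterase domain of polyketide synthase 13; the read-out is not stated. Concentration: 30 µM. The record gives no direction; the compounds picked for IC50 retests had high values, so higher reads as stronger inhibition. About 67,000 compounds were tested under these conditions; 0.46% (about 300) showed 50% or more at least once.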
CoaBC: 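Enzyme assay of CoaBC with a phosphate dye (Biomol Green) read at 650 nm. Target: Coenzyme A biosynthesis protein CoaBC, Mycobacterium tuberculosis (UniProt P9WNZ1). Tested at 30 µM. Higher reads as stronger inhibition, judged from the few compounds that gave an IC50. Most strong results did not repeat in a second test. Of about 67,000 compounds tested this way, about 40 (0.06%) reached 50% or more in at least one test.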
Leishmania in macrophages: 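Cell assay of Leishmania donovani living inside macrophages; the read-out is not stated. Tested at 30 µM. Direction is inferred from retests: higher values go with stronger inhibition. Of about 69,000 compounds tested this way, about 1,000 (1.5%) reached 50% or more in at least one test.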
PfKRS1: 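Enzyme assay of the cytosolic lysyl-tRNA synthetase in 384-well plates, read by luminescence. Target: Lysine-tRNA ligase, Plasmodium falciparum 3D7 (UniProt Q8IDJ8). Tested at 30 µM. Direction is inferred from only a few compounds that gave an IC50; most scored high, so higher reads as stronger inhibition. Size under these conditions: about 69,000 compounds, about 49 of them at 50% or above in at least one test.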
MtTrpRS: 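Enzyme assay of tryptophanyl-tRNA synthetase; the read-out is not stated. Target: Tryptophan-tRNA ligase, Mycobacterium tuberculosis (UniProt P9WFT3). Concentration: 10 µM. Higher most likely means stronger inhibition; the record gives no direction and few retests gave an IC50. About 65,000 compounds were tested under these conditions; 0.098% (about 64) showed 50% or more at least once.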

compound	TcHisRS	Pks13 thioesterase	CoaBC	Leishmania in macrophages	PfKRS1	MtTrpRS
CN(CC1(CO)CCCC1)c1nc2c(c(=O)[nH]1)Cc1ccccc1OC2	10.71%	1.037%	-0.1229%	21.52%	-0.2628%	0.7389%
[H][C@@]12CS(=O)(=O)C[C@]1([H])N(Cc1ncc[nH]1)CCN2CC=C(C)C	-	-	-	-9.506%	-	-
Cc1cc(CC(=O)N(CC2CN(C)CCO2)c2nccs2)no1 (configuration not stated)	0.3831%	-3.968%	-1.349%	18.43%	4.733%	-3.984%
CC(C)(C)NC[C@@H]1CCC[C@@H]2CN(Cc3csnn3)C[C@@H]21	2.174%	-28.79%	7.944%	-	4.059%	-3.144%
[H][C@@]12CNC[C@]1([H])CN(C(=O)c1cc(F)cc(F)c1)C2	-	-	-	23.28%	-	-
Cc1csc(CN2CCC[C@]3(C[C@@H](Oc4ccccn4)CO3)C2)n1	10.05%	-2.038%	6.947%	-	0.4016%	2.179%
CCCS(=O)(=O)N1CCN(c2cc(-n3ccnc3)nc(C)n2)CC1	2.041%	-23.89%	1.576%	33.03%	5.568%	1.751%
Cc1nn(C)c(Cl)c1CNCc1cccnc1N1CCN(C)CC1.Cl	-	-	-	52.88%	-	-
Cc1cccc(C(C)CNC(=O)N2CCC3(C2)OCCO3)c1 (configuration not stated)	-4.433%	5.867%	7.911%	-13.5%	3.825%	16.43%
Cc1ncc2c(n1)CN(Cc1nc3c(F)cccc3[nH]1)CC2	23.87%	-3.757%	-3.623%	36.15%	5.473%	-2.364%
CN(C)S(=O)(=O)N1C[C@@H]2CC[C@H](C1)N(CCC(=O)NCc1ccco1)C2	8.293%	-2.545%	-1.38%	-	1.189%	1.498%
O=C(NCC(=O)N1CCCC1Cc1cccc(F)c1)C1CCCC1 (configuration not stated)	11.67%	-2.154%	-5.447%	-14.19%	6.311%	0.9497%
Cc1ccc(N2CC(c3nccc(C)n3)C2)nn1	-25.76%	5.39%	3.154%	15.59%	-0.5264%	10.5%
[H][C@@]12CS(=O)(=O)C[C@]1([H])N(Cc1ccc(CCC)o1)CCN2c1ncccn1	-	-	-	12.4%	-	-
COCC1CC2(CCN(C(=O)c3cnc4ccccc4c3)CC2)CO1 (configuration not stated)	6.557%	4.786%	-0.6536%	-	3.404%	-4.794%
CC1=C(c2ccc(C)cc2)S(=O)(=O)N=C1N1CCc2ccccc21	8.543%	-9.402%	1.324%	-12.24%	2.082%	2.054%
CNC(=O)c1cccc(CC2COCCN(Cc3ccc(C)o3)C2)n1 (configuration not stated)	2.632%	7.895%	16.55%	44.02%	2.715%	2.732%
CC(C)c1nnc2ccc(N3CCC(C(=O)O)CC3)nn12	0.5848%	-12.88%	5.556%	-0.7033%	4.025%	0.07003%
CC(C)(C)CN1CCCC(O)(CN2CCc3[nH]ncc3C2)C1=O (configuration not stated)	4.972%	-17.45%	8.238%	13.65%	0.9765%	1.147%
O=S(=O)(CCN1CCOC(Cn2cccn2)C1)c1ccccc1 (configuration not stated)	4.233%	-10.2%	1.775%	6.878%	4.055%	-1.57%
Cc1ccc(CN2CCn3c(COc4cccnc4)cnc3C2C)o1 (configuration not stated)	-5.528%	-0.7438%	8.045%	-	3.685%	-
CC(C)CN1CCN(C)C(CCO)C1 (configuration not stated)	4.721%	-8.166%	-4.904%	18.72%	4.217%	0.000005%
Cc1nocc1C(=O)N1CCc2c(CN(C)C)nn(C)c2C1	0.4808%	-15.01%	-4.941%	1.326%	5.58%	-3.151%
CC(CNC(=O)NCCCc1cc(N)n(-c2ccccc2)n1)N(C)C (configuration not stated)	-0.6135%	-0.7084%	1.921%	25.13%	-3.968%	2.442%
CN(C)S(=O)(=O)N1CCN(c2ccnc(N3CCCCC3)n2)CC1	5.941%	-34.5%	-2.447%	-15.25%	2.796%	-2.972%
c1cc(CN2CCc3ncc(CN4CCOCC4)n3CC2)cs1	3.509%	-13.91%	-4.069%	-	1.476%	-1.502%
C1CC(NCc2nnc(C3CC3)o2)CN(Cc2noc(C3CC3)n2)C1 (configuration not stated)	1.458%	-20.04%	6.266%	28.99%	-0.2845%	-4.639%
c1nc(CCC2CCCCN2)cc(N2CCCC2)n1 (configuration not stated)	8.511%	-5.857%	0%	-	2.699%	-
O=C(O)C(F)(F)F.O=C(O)C(F)(F)F.O=C(O)C(F)(F)F.c1ccc(CN2CCOC3(CCN(c4ncccn4)CC3)C2)nc1	-	-	-	-21.02% and -5.324%	-	-
O=C(c1csc(-c2cccs2)n1)N1CCCC1Cn1cccn1 (configuration not stated)	0.7576%	-10.38%	-1.169%	19.53%	2.442%	-2.437%
[H][C@@]12CCN(C[C@@H]1CC)[C@@H](CNCc1ccc(OC)cc1)C2	-	-	-	29.54%	-	-
CN(C)CCN1C[C@@H]2CN(C(=O)C3CCOC3)C[C@@H]2C1=O (some centres not stated)	-8.589%	19.43%	-	-	-8.988%	5.523%
CN(c1ccc(C(=O)NCCCN2CCOCC2)c(Cl)c1)S(C)(=O)=O	4.184%	27.87%	1.364%	7.39%	-5.691%	-0.9114%
Cc1cc(NC(=O)N2CCN(C)CC2C)n(CCC#N)n1 (configuration not stated)	3.941%	-20.54%	1.923%	28.07%	-0.6402%	0.08818%
Cn1ncc2c(NCC3CCS(=O)(=O)C3)nc(C3CCCC3)nc21 (configuration not stated)	2.128%	-22.72%	-1.518%	6.373%	4.894%	-1.5%
Cc1cnn(CC2CCCN2CCCS(=O)(=O)N(C)C)c1 (configuration not stated)	7.91%	-3.126%	1.567%	24.59%	0.8786%	-2.443%
CCc1ccccc1N1CC(c2nnc(N)s2)CC1=O (configuration not stated)	4.018%	2.775%	5.357%	-11.18%	4.597%	-0.1273%
CCS(=O)(=O)N1CCC(c2nnc(C3CC3)o2)CC1	6.341%	-4.676%	-4.141%	11.76%	5.69%	0.07886%
CC(C)c1cnc(CN(C)C2CCN(CCc3ccccn3)C2)o1 (configuration not stated)	4.04%	-9.01%	-0.6483%	-8.474%	-3.286%	4.499%
c1cc(-c2c[nH]c([C@@H]3COCCN3CC3CC3)n2)ccn1	1.493%	-31.72%	11.2%	25.86%	-0.7678%	2.059%
CCC(C)c1noc(C2CCN(C(=O)c3cccs3)CC2)n1 (configuration not stated)	5.021%	-4.844%	-3.636%	8.549%	-1.423%	-0.9114%
Cc1noc(-c2ccnc(Oc3cccc(CN4CCCC4)c3F)c2)n1	4%	-21.18%	6.71%	19.27%	-1.473%	0.8051%
CN(CCCNS(=O)(=O)N1CCC2(CC1)OCCO2)c1ccccc1	0%	-6.44%	-3.688%	-5.239%	-5.894%	18.56%
CCc1nc2ccccc2c(=O)n1CC1(O)CCN(C(=O)C2CC2)CC1	7.447%	-21.86%	2.451%	-	1.598%	-
Cc1noc(C)c1CN1CCCC2(CCN(C(=O)CC3CC3)C2)C1 (configuration not stated)	4.511%	-13.11%	-5.079%	27.45%	1.22%	0.5344%
O=C(O)C(F)(F)F.[H][C@@]12OCCN(Cc3csc(C)n3)[C@@]1([H])CC[C@H]2OCC(=O)N(C)C	-	-	-	16.04%	-	-
CC(C)c1nc(CNC2CCN(S(C)(=O)=O)CC2)cs1	11.28%	33.51%	7.118%	14.53%	-0.3199%	29.29%
O=C(CCc1ccc2c(c1)OCO2)N1CCCCC1Cn1cccn1 (configuration not stated)	3.207%	-13.64%	2.872%	10.09%	1.897%	-3.26%
c1cnc(N2CCN(CCn3ccnc3-c3c[nH]cn3)CC2)nc1	2.4%	-21.24%	-9.307%	3.999%	3.237%	-2.093%
CCc1nc(C2CCCN(c3nccc(N4CCCC4)n3)C2)no1 (configuration not stated)	4.082%	-9.2%	-5.159%	4.333%	2.274%	-5.832%
CCn1cnnc1C1CCN(C(=O)c2cccc(N(C)C)c2)CC1	7.538%	-7.871%	-1.083%	13.88%	-1.035%	0.2935%
O=C(NCc1nncn1C1CC1)C1(c2cccc(F)c2)CCOCC1	5.063%	-9.737%	-3.606%	1.648%	0.9027%	1.484%
Brc1ccc(C2(NCc3noc(C4CC4)n3)CCC2)cc1	0%	-20.58%	9.96%	-8.476%	1.848%	1.815%
Cl.O=C(O)C1(Cc2ccc(-c3cccs3)cc2)CCNC1 (configuration not stated)	-	-	-	44.48%	-	-
N#Cc1cc(NC(=O)c2ccccn2)ccc1N1CCC(O)CC1	1.97%	-	4.487%	9.93%	3.029%	-3.968%
Cc1nc(CCC(N)=O)cc(C2CCCN2S(C)(=O)=O)n1 (configuration not stated)	0.8571%	-	10.27%	2.05%	0.6957%	-1.76%

The first 5 entries again:

{"compound": "CN(CC1(CO)CCCC1)c1nc2c(c(=O)[nH]1)Cc1ccccc1OC2", "TcHisRS": 10.71, "Pks13 thioesterase": 1.037, "CoaBC": -0.1229, "Leishmania in macrophages": 21.52, "PfKRS1": -0.2628, "MtTrpRS": 0.7389}
{"compound": "[H][C@@]12CS(=O)(=O)C[C@]1([H])N(Cc1ncc[nH]1)CCN2CC=C(C)C", "Leishmania in macrophages": -9.506}
{"compound": "Cc1cc(CC(=O)N(CC2CN(C)CCO2)c2nccs2)no1", "stereo": "configuration not stated", "TcHisRS": 0.3831, "Pks13 thioesterase": -3.968, "CoaBC": -1.349, "Leishmania in macrophages": 18.43, "PfKRS1": 4.733, "MtTrpRS": -3.984}
{"compound": "CC(C)(C)NC[C@@H]1CCC[C@@H]2CN(Cc3csnn3)C[C@@H]21", "TcHisRS": 2.174, "Pks13 thioesterase": -28.79, "CoaBC": 7.944, "PfKRS1": 4.059, "MtTrpRS": -3.144}
{"compound": "[H][C@@]12CNC[C@]1([H])CN(C(=O)c1cc(F)cc(F)c1)C2", "Leishmania in macrophages": 23.28}

The values are deposited in ChEMBL (CHEMBL3988442, “University of Dundee, Small-Polar-MMV Screening Library” (2021)).